Laboratory results published in the supplement of paper PMC10849652.
The other results are listed elsewhere or left out.

Protein sequences, listed by entry. Tags and fused reporters are not part of them. Lines headed by an entry give the natural chain unless they say otherwise; changes in a name come on top.
UniProt Q9H9S5: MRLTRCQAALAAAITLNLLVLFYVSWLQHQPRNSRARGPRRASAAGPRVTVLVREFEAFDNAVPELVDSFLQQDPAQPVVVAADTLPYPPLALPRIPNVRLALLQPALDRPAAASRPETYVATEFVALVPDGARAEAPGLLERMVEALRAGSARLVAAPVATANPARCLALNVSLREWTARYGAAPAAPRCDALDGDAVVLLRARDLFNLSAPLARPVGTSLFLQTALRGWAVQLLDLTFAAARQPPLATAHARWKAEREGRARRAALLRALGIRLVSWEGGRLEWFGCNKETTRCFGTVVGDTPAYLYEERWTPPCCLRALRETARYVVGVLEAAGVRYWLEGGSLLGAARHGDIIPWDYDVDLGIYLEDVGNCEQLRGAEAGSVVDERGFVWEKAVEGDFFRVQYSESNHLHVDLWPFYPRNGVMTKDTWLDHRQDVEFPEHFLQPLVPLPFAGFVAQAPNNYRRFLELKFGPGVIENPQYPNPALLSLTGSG
UniProt P22570: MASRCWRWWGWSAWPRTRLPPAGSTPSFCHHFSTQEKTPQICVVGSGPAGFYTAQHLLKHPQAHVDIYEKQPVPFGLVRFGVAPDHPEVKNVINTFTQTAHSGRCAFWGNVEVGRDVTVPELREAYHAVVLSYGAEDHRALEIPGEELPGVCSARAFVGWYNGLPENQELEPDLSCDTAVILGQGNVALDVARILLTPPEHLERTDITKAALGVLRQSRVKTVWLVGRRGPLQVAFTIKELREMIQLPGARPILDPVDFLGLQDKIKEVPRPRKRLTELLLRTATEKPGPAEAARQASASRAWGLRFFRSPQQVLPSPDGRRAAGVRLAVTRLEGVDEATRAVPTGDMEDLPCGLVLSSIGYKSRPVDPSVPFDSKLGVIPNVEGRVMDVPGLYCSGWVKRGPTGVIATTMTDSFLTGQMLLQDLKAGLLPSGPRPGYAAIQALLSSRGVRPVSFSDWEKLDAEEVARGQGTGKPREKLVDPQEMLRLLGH
UniProt P35916, whole entry, looked up: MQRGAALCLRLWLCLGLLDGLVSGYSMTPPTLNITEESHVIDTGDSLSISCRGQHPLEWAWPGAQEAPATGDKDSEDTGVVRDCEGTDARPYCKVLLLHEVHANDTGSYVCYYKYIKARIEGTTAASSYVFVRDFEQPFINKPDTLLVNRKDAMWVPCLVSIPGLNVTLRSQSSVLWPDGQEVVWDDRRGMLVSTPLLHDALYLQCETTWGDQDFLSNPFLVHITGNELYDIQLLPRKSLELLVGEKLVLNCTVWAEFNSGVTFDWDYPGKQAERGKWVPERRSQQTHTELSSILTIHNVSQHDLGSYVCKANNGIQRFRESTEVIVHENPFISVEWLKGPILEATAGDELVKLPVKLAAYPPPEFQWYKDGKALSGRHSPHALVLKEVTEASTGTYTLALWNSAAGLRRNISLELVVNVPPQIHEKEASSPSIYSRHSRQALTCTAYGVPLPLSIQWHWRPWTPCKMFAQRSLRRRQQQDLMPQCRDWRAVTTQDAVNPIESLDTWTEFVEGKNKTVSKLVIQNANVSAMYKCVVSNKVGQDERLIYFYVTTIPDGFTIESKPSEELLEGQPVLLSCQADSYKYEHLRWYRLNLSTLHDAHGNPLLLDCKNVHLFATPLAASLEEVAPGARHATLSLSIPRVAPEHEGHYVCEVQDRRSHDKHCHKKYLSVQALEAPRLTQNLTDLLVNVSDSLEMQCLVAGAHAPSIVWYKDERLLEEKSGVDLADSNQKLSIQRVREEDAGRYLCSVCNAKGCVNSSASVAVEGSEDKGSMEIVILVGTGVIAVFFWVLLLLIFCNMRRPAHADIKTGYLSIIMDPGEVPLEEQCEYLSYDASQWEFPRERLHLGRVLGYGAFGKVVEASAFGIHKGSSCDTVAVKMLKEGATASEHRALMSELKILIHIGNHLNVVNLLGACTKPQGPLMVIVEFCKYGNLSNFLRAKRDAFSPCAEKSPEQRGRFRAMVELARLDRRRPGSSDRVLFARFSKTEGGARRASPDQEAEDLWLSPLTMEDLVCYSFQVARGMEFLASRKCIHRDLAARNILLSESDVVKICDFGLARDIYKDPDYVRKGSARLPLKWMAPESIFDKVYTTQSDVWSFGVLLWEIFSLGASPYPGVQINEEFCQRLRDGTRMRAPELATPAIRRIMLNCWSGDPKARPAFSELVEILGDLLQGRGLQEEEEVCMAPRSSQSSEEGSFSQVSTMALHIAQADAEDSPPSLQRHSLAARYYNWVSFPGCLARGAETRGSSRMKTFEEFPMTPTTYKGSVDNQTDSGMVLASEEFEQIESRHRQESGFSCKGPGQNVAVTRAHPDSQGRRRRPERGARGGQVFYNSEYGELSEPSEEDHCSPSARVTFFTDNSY
UniProt Q9UIM3: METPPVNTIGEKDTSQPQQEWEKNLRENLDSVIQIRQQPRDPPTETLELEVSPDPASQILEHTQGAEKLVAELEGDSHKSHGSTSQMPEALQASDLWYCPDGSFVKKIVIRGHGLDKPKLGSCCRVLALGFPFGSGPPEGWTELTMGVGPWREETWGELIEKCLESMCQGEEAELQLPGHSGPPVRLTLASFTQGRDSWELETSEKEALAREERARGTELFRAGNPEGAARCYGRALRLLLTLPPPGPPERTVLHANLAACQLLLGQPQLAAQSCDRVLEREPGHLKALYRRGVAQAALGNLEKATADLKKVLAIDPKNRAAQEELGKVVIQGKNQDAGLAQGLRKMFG
UniProt P10109: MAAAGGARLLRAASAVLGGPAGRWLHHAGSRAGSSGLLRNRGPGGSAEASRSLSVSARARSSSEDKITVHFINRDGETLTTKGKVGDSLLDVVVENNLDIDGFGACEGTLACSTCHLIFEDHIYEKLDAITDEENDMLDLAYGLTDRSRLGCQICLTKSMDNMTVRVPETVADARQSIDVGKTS
UniProt Q8IW50: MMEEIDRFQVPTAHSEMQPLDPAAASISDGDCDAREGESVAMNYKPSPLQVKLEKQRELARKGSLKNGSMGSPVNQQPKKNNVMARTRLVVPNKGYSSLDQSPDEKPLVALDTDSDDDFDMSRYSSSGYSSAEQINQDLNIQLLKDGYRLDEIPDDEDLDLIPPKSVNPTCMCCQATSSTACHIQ
UniProt Q5HYJ3: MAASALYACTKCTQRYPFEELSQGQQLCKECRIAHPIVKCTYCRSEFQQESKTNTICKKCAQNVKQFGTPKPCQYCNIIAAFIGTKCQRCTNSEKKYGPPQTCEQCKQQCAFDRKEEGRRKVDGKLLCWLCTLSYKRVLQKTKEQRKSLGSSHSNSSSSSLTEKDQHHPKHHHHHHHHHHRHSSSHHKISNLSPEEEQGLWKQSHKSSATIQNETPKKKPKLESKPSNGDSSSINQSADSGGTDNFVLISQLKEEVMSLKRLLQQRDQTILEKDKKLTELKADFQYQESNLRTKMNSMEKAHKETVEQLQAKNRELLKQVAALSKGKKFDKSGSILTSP
UniProt P98173: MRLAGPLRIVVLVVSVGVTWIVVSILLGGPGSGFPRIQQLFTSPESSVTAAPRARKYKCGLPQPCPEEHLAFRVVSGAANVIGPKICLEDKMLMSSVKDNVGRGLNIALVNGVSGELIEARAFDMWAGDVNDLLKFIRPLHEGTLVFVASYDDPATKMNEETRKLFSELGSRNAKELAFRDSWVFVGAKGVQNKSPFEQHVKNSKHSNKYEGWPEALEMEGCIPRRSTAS
UniProt P22830: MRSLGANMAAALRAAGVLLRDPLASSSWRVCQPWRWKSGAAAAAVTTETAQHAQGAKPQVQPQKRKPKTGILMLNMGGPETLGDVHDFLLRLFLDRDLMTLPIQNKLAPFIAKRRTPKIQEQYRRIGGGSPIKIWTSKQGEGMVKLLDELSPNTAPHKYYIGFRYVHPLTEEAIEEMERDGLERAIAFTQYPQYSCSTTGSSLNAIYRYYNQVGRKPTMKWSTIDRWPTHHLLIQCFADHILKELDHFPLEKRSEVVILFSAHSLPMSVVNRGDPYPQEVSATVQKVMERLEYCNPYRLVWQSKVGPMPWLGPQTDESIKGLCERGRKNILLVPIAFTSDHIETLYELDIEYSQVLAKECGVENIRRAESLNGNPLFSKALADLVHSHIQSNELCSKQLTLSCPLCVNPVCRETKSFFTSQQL
UniProt Q92913: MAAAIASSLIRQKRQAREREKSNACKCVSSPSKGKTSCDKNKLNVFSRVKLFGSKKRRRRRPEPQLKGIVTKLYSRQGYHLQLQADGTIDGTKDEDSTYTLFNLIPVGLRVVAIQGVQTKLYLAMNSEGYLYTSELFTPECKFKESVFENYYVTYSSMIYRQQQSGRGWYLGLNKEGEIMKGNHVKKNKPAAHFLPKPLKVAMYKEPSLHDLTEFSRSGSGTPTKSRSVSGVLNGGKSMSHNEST
UniProt Q8N3X1: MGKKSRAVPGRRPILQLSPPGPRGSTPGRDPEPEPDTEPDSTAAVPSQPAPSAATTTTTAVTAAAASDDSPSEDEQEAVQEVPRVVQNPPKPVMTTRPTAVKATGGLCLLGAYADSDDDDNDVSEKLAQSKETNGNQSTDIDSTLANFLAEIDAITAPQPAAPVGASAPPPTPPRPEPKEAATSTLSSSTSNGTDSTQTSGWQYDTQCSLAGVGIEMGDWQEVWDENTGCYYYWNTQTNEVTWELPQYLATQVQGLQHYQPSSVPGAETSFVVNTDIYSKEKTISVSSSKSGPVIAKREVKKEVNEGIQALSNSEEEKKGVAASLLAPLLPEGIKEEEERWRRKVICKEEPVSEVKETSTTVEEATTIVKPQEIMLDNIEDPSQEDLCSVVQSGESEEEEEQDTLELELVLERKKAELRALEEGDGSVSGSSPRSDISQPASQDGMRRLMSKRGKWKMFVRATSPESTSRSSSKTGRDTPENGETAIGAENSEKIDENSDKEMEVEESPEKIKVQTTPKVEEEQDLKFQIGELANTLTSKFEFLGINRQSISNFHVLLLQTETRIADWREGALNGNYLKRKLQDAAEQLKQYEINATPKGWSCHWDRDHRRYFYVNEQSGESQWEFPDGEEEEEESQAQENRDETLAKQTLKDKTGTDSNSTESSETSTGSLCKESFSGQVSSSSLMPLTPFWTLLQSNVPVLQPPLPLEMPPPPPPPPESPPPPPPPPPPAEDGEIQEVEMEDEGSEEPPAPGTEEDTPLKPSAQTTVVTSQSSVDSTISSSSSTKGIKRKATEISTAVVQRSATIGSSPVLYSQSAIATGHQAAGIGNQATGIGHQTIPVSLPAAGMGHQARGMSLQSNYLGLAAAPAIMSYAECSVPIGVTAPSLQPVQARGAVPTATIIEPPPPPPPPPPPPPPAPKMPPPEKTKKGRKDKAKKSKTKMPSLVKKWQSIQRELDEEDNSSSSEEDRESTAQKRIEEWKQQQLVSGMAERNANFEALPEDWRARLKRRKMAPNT
UniProt Q02790: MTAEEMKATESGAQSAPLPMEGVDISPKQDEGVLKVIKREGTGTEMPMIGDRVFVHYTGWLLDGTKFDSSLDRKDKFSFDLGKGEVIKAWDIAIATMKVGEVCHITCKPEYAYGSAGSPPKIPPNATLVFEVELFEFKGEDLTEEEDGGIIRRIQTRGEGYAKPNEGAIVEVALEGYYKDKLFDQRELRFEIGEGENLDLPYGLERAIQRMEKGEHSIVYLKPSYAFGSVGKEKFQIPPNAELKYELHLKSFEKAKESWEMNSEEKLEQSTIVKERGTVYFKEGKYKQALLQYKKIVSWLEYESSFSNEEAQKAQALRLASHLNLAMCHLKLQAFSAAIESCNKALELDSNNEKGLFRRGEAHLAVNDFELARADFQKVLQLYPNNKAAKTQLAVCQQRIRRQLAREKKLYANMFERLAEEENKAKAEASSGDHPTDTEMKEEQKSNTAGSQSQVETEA
UniProt Q96ND0: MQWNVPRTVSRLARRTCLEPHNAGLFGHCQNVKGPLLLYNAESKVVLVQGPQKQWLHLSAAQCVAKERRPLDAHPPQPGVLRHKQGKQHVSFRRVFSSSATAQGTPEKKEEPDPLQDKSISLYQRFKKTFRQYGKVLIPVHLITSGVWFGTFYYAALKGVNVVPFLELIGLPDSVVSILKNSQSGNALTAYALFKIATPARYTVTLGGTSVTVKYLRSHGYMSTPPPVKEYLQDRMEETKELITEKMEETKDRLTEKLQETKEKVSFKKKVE
UniProt Q5XUX1: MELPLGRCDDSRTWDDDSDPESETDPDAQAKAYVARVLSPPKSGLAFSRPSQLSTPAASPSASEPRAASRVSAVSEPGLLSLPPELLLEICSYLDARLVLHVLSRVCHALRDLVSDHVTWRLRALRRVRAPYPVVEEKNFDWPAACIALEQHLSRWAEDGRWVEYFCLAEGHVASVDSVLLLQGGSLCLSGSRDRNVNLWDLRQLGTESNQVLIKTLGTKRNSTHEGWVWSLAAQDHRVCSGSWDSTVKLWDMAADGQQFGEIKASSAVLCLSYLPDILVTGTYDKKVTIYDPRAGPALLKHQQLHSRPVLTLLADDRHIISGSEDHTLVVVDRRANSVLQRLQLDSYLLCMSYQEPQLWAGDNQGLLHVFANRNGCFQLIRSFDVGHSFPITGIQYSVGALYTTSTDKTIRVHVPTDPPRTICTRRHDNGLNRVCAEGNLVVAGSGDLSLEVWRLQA

The targets below were run with CC[C@@H]1C(=O)N(C)c2cnc(Nc3ccc(C(=O)N[C@H]4CC[C@H](N5CCN(CC6CC6)CC5)CC4)cc3OC)nc2N1C(C)C [volasertib] (assay: log2 fold change, soluble protein after heating vs DMSO (PISA); higher = thermal stabilisation; K562 cells, 10 uM, 30 min; active = over 0.2 and 3.5 SD of the protein, either way, in both replicates (recomputed)).
How it was run: (§1)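 Quantification of soluble protein used TMTpro 16plex LC-MS/MS, with channel sums equalised. Samples were the supernatant after 21,000xg for 90 min of pooled aliquots from K562 cells (2×10^6 cells/mL) treated with 10 μM compound for 30 min, heated for 3 min over 48°C-58°C, and extracted in PBS with 0.5% NP-40 at 4°C. Values, from duplicates, describe thermal stability against control samples on a log2 fold-change scale.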
FN3KRP (UniProt Q9HA64) was tested, and the log2 fold change was inactive: 0.073.
In the case of FCGR2A (UniProt P12318), the log2 fold change is reported as inactive: -0.035.
With FKRP (UniProt Q9H9S5) the log2 fold change was inactive: -0.079.
With FDXR isoform 7 (UniProt P22570) the log2 fold change was inactive: 0.003.
FIP1L1 (UniProt Q6UN15) was tested, and the log2 fold change was inactive: 0.016.
FAM234A (UniProt Q9H0X4) was tested, and the log2 fold change was inactive: 0.041.
For FLNA (UniProt P21333), the log2 fold change was active: -0.375.
With FAM98A (UniProt Q8NCA5) the log2 fold change was inactive: 0.07.
In the case of FLT4 (UniProt P35916), the log2 fold change is reported as inactive: 0.02.
For FBXL12 (UniProt Q9NXK8), the log2 fold change was inactive: -0.083.
With FKBPL (UniProt Q9UIM3) the log2 fold change was inactive: -0.075.
In the case of FDX1 (UniProt P10109), the log2 fold change is reported as inactive: -0.021.
In the case of FAM219A (UniProt Q8IW50), the log2 fold change is reported as inactive: 0.095.
With FAM91A1 (UniProt Q658Y4) the log2 fold change was inactive: 0.221.
FBXO30 (UniProt Q8TB52) was tested, and the log2 fold change was inactive: -0.159.
FBXO7 (UniProt Q9Y3I1) was tested, and the log2 fold change was inactive: -0.198.
FAM76B (UniProt Q5HYJ3) was tested, and the log2 fold change was inactive: -0.139.
For FAM3A (UniProt P98173), the log2 fold change was inactive: -0.11.
For FANCB (UniProt Q8NB91), the log2 fold change was inactive: 0.04.
FECH isoform 2 (UniProt P22830) was tested, and the log2 fold change was inactive: 0.368.
FHL3 (UniProt Q13643) was tested, and the log2 fold change was inactive: 0.063.
FKBP9 (UniProt O95302) was tested, and the log2 fold change was inactive: -0.029.
FAM49B (UniProt Q9NUQ9) was tested, and the log2 fold change was inactive: 0.01.
For FASTKD2 (UniProt Q9NYY8), the log2 fold change was inactive: -0.108.
In the case of FGF13 isoform 3 (UniProt Q92913), the log2 fold change is reported as inactive: -0.051.
For FERMT3 (UniProt Q86UX7), the log2 fold change was active: -0.262.
FBXO6 (UniProt Q9NRD1) was tested, and the log2 fold change was active: 0.696.
For FBL (UniProt P22087), the log2 fold change was inactive: 0.151.
In the case of FNBP4 isoform 2 (UniProt Q8N3X1), the log2 fold change is reported as inactive: 0.077.
For FAR1 (UniProt Q8WVX9), the log2 fold change was inactive: -0.207.
In the case of FBH1 isoform 2 (UniProt Q8NFZ0), the log2 fold change is reported as inactive: -0.127.
FARS2 (UniProt O95363) was tested, and the log2 fold change was inactive: -0.172.
In the case of FN1 isoform 1 (UniProt P02751), the log2 fold change is reported as inactive: 0.009.
In the case of FKBP4 (UniProt Q02790), the log2 fold change is reported as inactive: -0.136.
For FKBP5 (UniProt Q13451), the log2 fold change was inactive: -0.432.
With FAT3 isoform 1 (UniProt Q8TDW7) the log2 fold change was inactive: -0.049.
With FAM210A (UniProt Q96ND0) the log2 fold change was inactive: 0.007.
With FIS1 (UniProt Q9Y3D6) the log2 fold change was inactive: 0.046.
With FBXW9 (UniProt Q5XUX1) the log2 fold change was inactive: -0.119.

What follows are targets tested with CC[C@H](C)N1C=C(C2=C(C=C(C=C21)C3=CN=C(C=C3)N4CCNCC4)C(=O)NCC5=C(C=C(NC5=O)C)C)C in the same assay as above.
How it was run: as §1
In the case of FN3KRP (UniProt Q9HA64), the log2 fold change is reported as inactive: -0.014.
FCGR2A (UniProt P12318) was tested, and the log2 fold change was inactive: -0.099.
FKRP (UniProt Q9H9S5) was tested, and the log2 fold change was inactive: 0.018.
For FDXR isoform 7 (UniProt P22570), the log2 fold change was inactive: 0.025.
In the case of FIP1L1 (UniProt Q6UN15), the log2 fold change is reported as inactive: -0.017.
With FAM234A (UniProt Q9H0X4) the log2 fold change was inactive: -0.02.
FLNA (UniProt P21333) was tested, and the log2 fold change was inactive: 0.078.
With FAM98A (UniProt Q8NCA5) the log2 fold change was inactive: 0.039.
In the case of FLT4 (UniProt P35916), the log2 fold change is reported as inactive: 0.021.
FBXL12 (UniProt Q9NXK8) was tested, and the log2 fold change was inactive: 0.019.
For FKBPL (UniProt Q9UIM3), the log2 fold change was inactive: 0.017.
With FDX1 (UniProt P10109) the log2 fold change was inactive: -0.049.
For FAM219A (UniProt Q8IW50), the log2 fold change was inactive: 0.179.
For FAM91A1 (UniProt Q658Y4), the log2 fold change was inactive: -0.007.
In the case of FBXO30 (UniProt Q8TB52), the log2 fold change is reported as inactive: 0.053.
For FBXO7 (UniProt Q9Y3I1), the log2 fold change was inactive: 0.044.
In the case of FAM76B (UniProt Q5HYJ3), the log2 fold change is reported as inactive: -0.097.
In the case of FAM3A (UniProt P98173), the log2 fold change is reported as inactive: -0.02.
For FANCB (UniProt Q8NB91), the log2 fold change was inactive: -0.045.
With FECH isoform 2 (UniProt P22830) the log2 fold change was inactive: 0.037.
In the case of FHL3 (UniProt Q13643), the log2 fold change is reported as inactive: -0.021.
FKBP9 (UniProt O95302) was tested, and the log2 fold change was inactive: 0.023.
FAM49B (UniProt Q9NUQ9) was tested, and the log2 fold change was inactive: 0.001.
FASTKD2 (UniProt Q9NYY8) was tested, and the log2 fold change was inactive: 0.022.
With FGF13 isoform 3 (UniProt Q92913) the log2 fold change was inactive: -0.019.
FERMT3 (UniProt Q86UX7) was tested, and the log2 fold change was inactive: 0.053.
With FBXO6 (UniProt Q9NRD1) the log2 fold change was inactive: 0.096.
FBL (UniProt P22087) was tested, and the log2 fold change was inactive: -0.034.
For FNBP4 isoform 2 (UniProt Q8N3X1), the log2 fold change was inactive: -0.059.
With FAR1 (UniProt Q8WVX9) the log2 fold change was inactive: 0.017.
For FBH1 isoform 2 (UniProt Q8NFZ0), the log2 fold change was inactive: -0.009.
FARS2 (UniProt O95363) was tested, and the log2 fold change was inactive: 0.109.
In the case of FN1 isoform 1 (UniProt P02751), the log2 fold change is reported as inactive: -0.007.
For FKBP4 (UniProt Q02790), the log2 fold change was inactive: 0.07.
With FKBP5 (UniProt Q13451) the log2 fold change was inactive: 0.154.
With FAT3 isoform 1 (UniProt Q8TDW7) the log2 fold change was inactive: -0.082.
With FAM210A (UniProt Q96ND0) the log2 fold change was inactive: -0.044.
For FIS1 (UniProt Q9Y3D6), the log2 fold change was inactive: -0.023.
In the case of FBXW9 (UniProt Q5XUX1), the log2 fold change is reported as inactive: -0.043.
